Reference: PubChem BioAssay AID1159578 (Peter MacCallum Cancer Centre, 2015)
Purpose: 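siRNA pools altering how lymphatic endothelial cells close a scratch wound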 (primary screen). Cell system: human lymphatic endothelial cells. Reagents: siRNA pool against human genes, 40 nM. Time to read-out: 48 h after transfection. Detection: 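High-content imaging of dye-stained cells in a scratch assay measures filled wound area and nuclei per well; duplicate means given as ratio to mock and robust z-score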. Direction: migration robust z-score: higher = faster migration into the scratch; migration relative to mock: higher = more scratch area covered than mock; nuclei per well: higher = more cells in the well. Call rule: 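Migration changed when robust z exceeds 2 or falls below -2 and mean nuclei number is at least 3300; otherwise not called changed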. Calls: active = migration changed; inactive = no migration change, or too few cells.
In all, the deposit lists about 18,000 reagents; shown is a random part of them. About 1,030 of all reagents (5.7%) were called active. 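Inactive calls also include pools with fewer than 3300 nuclei, whose migration was not assessed.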 Raw values are not corrected between plates. Unmarked entries are inactive. Reagent sequences are not shown.

| migration robust z-score | migration class with cell-count check | migration relative to mock | nuclei per well, duplicate mean | gene |
| --- | --- | --- | --- | --- |
| -0.07 | migration z between -2 and 2; enough cells | 0.87 | 5466 | TBC1D2 |
| 0 | migration z between -2 and 2; enough cells | 0.88 | 5610 | FAABTP |
| -0.66 | migration z between -2 and 2; enough cells | 0.72 | 5336 | CNN1 |
| -0.6 | migration z between -2 and 2; enough cells | 0.73 | 5634 | NUTM2G |
| -1.15 | migration z between -2 and 2; enough cells | 0.58 | 5715 | SYT17 |
| 1.88 | migration z between -2 and 2; enough cells | 1.38 | 6640 | IL24 |
| -0.36 | migration z between -2 and 2; enough cells | 0.74 | 8403 | SMAD5 |
| 1.35 | migration z between -2 and 2; enough cells | 1.06 | 5400 | CPB1 |
| -0.24 | migration z between -2 and 2; enough cells | 0.76 | 5213 | BMAL2 |
| 0.39 | migration z between -2 and 2; enough cells | 0.88 | 5628 | PITRM1 |
| -0.13 | migration z between -2 and 2; enough cells | 0.85 | 4766 | GIGYF2 |
| 0.52 | migration z between -2 and 2; enough cells | 0.9 | 4655 | SLC41A3 |
| -0.72 | migration z between -2 and 2; enough cells | 0.66 | 4998 | UBLCP1 |
| 1.33 | migration z between -2 and 2; enough cells | 1.23 | 5298 | GAGE2C |
| 0.76 | migration z between -2 and 2; enough cells | 1.08 | 5946 | PLXNB3 |
| 0.64 | migration z between -2 and 2; enough cells | 1.05 | 6236 | ATRNL1 |
| 0.88 | migration z between -2 and 2; enough cells | 1.12 | 5536 | HYDIN |
| -0.36 | migration z between -2 and 2; enough cells | 0.8 | 7154 | YARS1 |
| -0.57 | migration z between -2 and 2; enough cells | 0.7 | 5490 | PIGC |
| -0.13 | migration z between -2 and 2; enough cells | 0.78 | 4936 | GMPPB |
| -0.98 | migration z between -2 and 2; enough cells | 0.62 | 4104 | RGS22 |
| -0.73 | migration z between -2 and 2; enough cells | 0.7 | 5454 | OR10Z1 |
| -1.9 | migration z between -2 and 2; enough cells | 0.44 | 4382 | ADAM18 |
| -0.21 | migration z between -2 and 2; enough cells | 0.76 | 4932 | FAP |
| -2.27 (active) | migration z below -2; enough cells | 0.3 | 5294 | C1QC |
| 0.57 | migration z between -2 and 2; enough cells | 0.91 | 6226 | UBE2D3 |
| -0.64 | migration z between -2 and 2; enough cells | 0.72 | 5571 | C4B |
| 1.49 | migration z between -2 and 2; enough cells | 1.27 | 5356 | ACTR5 |
| -0.86 | migration z between -2 and 2; enough cells | 0.66 | 6673 | GRB7 |
| 0.06 | migration z between -2 and 2; enough cells | 0.82 | 3335 | TRIT1 |
| 0.39 | migration z between -2 and 2; enough cells | 0.88 | 6189 | CES4A |
| -0.79 | migration z between -2 and 2; enough cells | 0.68 | 4128 | CXXC5 |
| 0.15 | migration z between -2 and 2; enough cells | 0.92 | 5685 | AQP11 |
| 0.11 | migration z between -2 and 2; enough cells | 0.91 | 5496 | PSG8 |
| -0.54 | migration z between -2 and 2; enough cells | 0.74 | 4910 | RAP1GDS1 |
| 0.8 | migration z between -2 and 2; enough cells | 1.1 | 4148 | RPS14 |
| 0.78 | migration z between -2 and 2; enough cells | 0.96 | 5972 | FUT1 |
| 1.04 | migration z between -2 and 2; enough cells | 1.15 | 7042 | MIDN |
| 0.29 | migration z between -2 and 2; enough cells | 0.96 | 5840 | FLT3LG |
| -0.09 | migration z between -2 and 2; enough cells | 0.86 | 7060 | CIMIP6 |
| 0.44 | migration z between -2 and 2; enough cells | 1 | 4826 | PWWP2B |
| -0.31 | migration z between -2 and 2; enough cells | 0.74 | 5140 | MRGPRX4 |
| 0.38 | migration z between -2 and 2; enough cells | 0.99 | 6308 | INTS8 |
| -2.05 (active) | migration z below -2; enough cells | 0.41 | 6030 | ASTL |
| 0.67 | migration z between -2 and 2; enough cells | 1.06 | 7167 | SLC9A4 |
| 0.48 | migration z between -2 and 2; enough cells | 1.01 | 5819 | ARFIP2 |
| 0.26 | migration z between -2 and 2; enough cells | 0.86 | 6028 | HOXD4 |
| 0.17 | migration z between -2 and 2; enough cells | 0.92 | 6728 | EAPP |
| -0.55 | migration z between -2 and 2; enough cells | 0.74 | 4570 | SV2C |
| -1.46 | migration z between -2 and 2; enough cells | 0.52 | 5594 | HMGB1 |
| 0.18 | migration z between -2 and 2; enough cells | 0.84 | 5900 | TTF2 |
| -0.97 | migration z between -2 and 2; enough cells | 0.64 | 4974 | VAPA |
| 0.38 | migration z between -2 and 2; enough cells | 0.98 | 4612 | RGS18 |
| -0.26 | migration z between -2 and 2; enough cells | 0.76 | 6290 | FKBP2 |
| -0.47 | migration z between -2 and 2; enough cells | 0.76 | 4934 | DSCC1 |
| 1.13 | migration z between -2 and 2; enough cells | 1.18 | 5726 | FBN1 |
| -0.1 | migration z between -2 and 2; enough cells | 0.78 | 6832 | PTPN2 |

Records listed above with an active call, once more:
| migration robust z-score | migration class with cell-count check | migration relative to mock | nuclei per well, duplicate mean | gene |
| --- | --- | --- | --- | --- |
| -2.27 (active) | migration z below -2; enough cells | 0.3 | 5294 | C1QC |
| -2.05 (active) | migration z below -2; enough cells | 0.41 | 6030 | ASTL |
